{"source": "PubChem BioAssay AID504467", "about": "(National Center for Advancing Translational Sciences (NCATS), 2011)", "note": "About 7,700 (2.3%) of roughly 330,000 compounds were called active. This list was built around the results that the source calls inconclusive (neither active nor inactive); the mix of calls is not that of the screen. Calls come from the whole dose curve; as a rule, active = well fitted inhibition curve with a large enough effect; inconclusive = small, poorly fitted or top-dose-only effect, or effect the other way; inactive = flat fitted curve, though single readings scatter. A potency beside an inconclusive call is a rough fit, not a confirmed value. % is set by controls: 0 for no effect and ±100 for the full control effect; potency is the fitted concentration of half-maximal effect."}
{"experiment": "qHTS screen for small molecules that inhibit ELG1-dependent DNA repair in human embryonic kidney (HEK293T) cells expressing luciferase-tagged ELG1; note: nearly all actives have a fitted effect of over 55% in size", "conditions": "HEK293T ELG1-luciferase reporter, luminescence, 16 h, DNA damage induced by 5-fluorouridine; activity change, negative = inhibition: at 46.1 µM (top of the series)", "summary_of_the_method": "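HEK293T cells expressing luciferase-tagged ELG1 (2,000/well) received 5-Fluorouridine plus compound or DMSO for 16 hr at 37 °C. Luciferase was read by ONE-Glo luminescence after 30 min at room temperature.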"}
{"smiles": "Cc1cc(C)cc(NC(=S)NCc2cccn2C)c1", "activity change, negative = inhibition": "inactive: 11.4%"}
{"smiles": "CCNC(=S)Nc1cccc(S(=O)(=O)Nc2ccccc2OC)c1", "activity change, negative = inhibition": "inactive: 0%"}
{"smiles": "O=C1NC(=O)/C(=C\\c2ccc(OCc3cccc([N+](=O)[O-])c3)cc2)N1", "Potency": "inconclusive: 18.3 µM [inhibitor, partial curve, poor fit]"}
{"smiles": "COc1cc(CC(=O)OCC(=O)N(C)C2CCCCC2)cc(OC)c1OC", "Potency": "inconclusive: 29.1 µM [inhibitor, single point]"}
{"smiles": "CCN(c1cccc(C)c1)c1ncnc2nc[nH]c12", "Potency": "inconclusive: 14.6 µM [inhibitor, partial curve]"}
{"smiles": "Nc1c(C(=O)c2ccc(Cl)cc2)sc2c1c(=O)[nH]c(=O)n2-c1ccccc1", "Potency": "inconclusive: 32.6 µM [inhibitor, single point]"}
{"smiles": "CCOC(=O)C1CCN(C(=O)COc2cc(C)c(Br)cc2C)CC1", "Potency": "inconclusive: 18.4 µM [inhibitor, single point]"}
{"smiles": "Cc1nn(-c2ccccc2)c(Cl)c1C(=O)OCC(=O)NCCc1ccccc1", "Potency": "inconclusive: 20.6 µM [inhibitor, single point]"}
{"smiles": "CCOc1ccc(-c2ccc(SCC(=O)NC3CCCCC3)nn2)cc1", "Potency": "inconclusive: 2.59 µM [activator, full curve]"}
{"smiles": "CC(OC(=O)/C=C/c1ccc2ccccc2n1)C(=O)Nc1ccc(S(N)(=O)=O)cc1", "note": "(stereo unspecified)", "Potency": "inconclusive: 10.3 µM [inhibitor, single point]"}
{"smiles": "CCc1ccc(CN(C)CC(O)COc2cccc3ccccc23)cc1", "note": "(stereo unspecified)", "activity change, negative = inhibition": "inactive: -1.29%"}
{"smiles": "Oc1ccc(/C=N/NC(=S)N/N=C/c2ccc(O)cc2)cc1", "activity change, negative = inhibition": "inactive: 28%"}
{"smiles": "CC(CS(=O)(=O)c1ccc2c(c1)NC(=O)CS2)C(=O)N1CCN(c2cccc(Cl)c2)CC1", "note": "(stereo unspecified)", "Potency": "inconclusive: 32.6 µM [inhibitor, partial curve, poor fit]"}
{"smiles": "CCOC(=O)Cc1csc(NC(=O)Nc2cccc(OC)c2)n1", "activity change, negative = inhibition": "inactive: -20.3%"}
{"smiles": "NC(=S)N/N=C/c1ccc2ccccc2c1", "Potency": "inconclusive: 11.6 µM [activator, partial curve]"}
{"smiles": "Cc1nc(NCCc2ccccc2)sc1C(=O)N(C)C", "Potency": "inconclusive: 20.6 µM [activator, partial curve]"}
{"smiles": "COCC(=O)Nc1c(C(=O)Nc2ccc3c(c2)OCCO3)oc2ccccc12", "Potency": "inconclusive: 2.91 µM [activator, partial curve]"}
{"smiles": "COC(=O)CCC(=O)c1ccc(OC)c(Cl)c1", "Potency": "inconclusive: 25.1 µM [activator, single point]"}
{"smiles": "CCN(CC(=O)NCc1ccc(F)cc1)C(=O)c1cc2ccccc2o1", "activity change, negative = inhibition": "inactive: 4.59%"}
{"smiles": "Cc1oncc1C(=O)Nc1ccc2ccccc2c1", "Potency": "inconclusive: 20.6 µM [activator, partial curve]"}
{"smiles": "O=C(Cc1cccs1)NCc1cccc(C(F)(F)F)c1", "Potency": "inconclusive: 20.6 µM [activator, partial curve]"}
{"smiles": "CC(OC(=O)c1cc(=O)[nH]c2ccccc12)c1ccccc1", "note": "(stereo unspecified)", "Potency": "inconclusive: 29.1 µM [activator, single point]"}
{"smiles": "O=C(CSc1ncnc2c1cnn2-c1ccc(F)cc1)NCc1ccc2c(c1)OCO2", "Potency": "inconclusive: 14.6 µM [activator, single point]"}
{"smiles": "CN(Cc1ccc(F)cc1)Cc1nc(CCc2ccccc2)no1", "activity change, negative = inhibition": "inactive: 17.4%"}
{"smiles": "S=C(Nc1ccccc1)N1CCOCCOCCN(C(=S)Nc2ccccc2)CCOCCOCC1", "activity change, negative = inhibition": "inactive: -19.2%"}
{"smiles": "CCOC(=O)N1CCC(NC(=O)c2ccc3c(c2)N=C(CC)c2ccccc2S3)CC1", "Potency": "inconclusive: 29.1 µM [inhibitor, single point]"}
{"smiles": "Cc1ccc(S(=O)(=O)NCC(=O)NC2CC2)cc1", "activity change, negative = inhibition": "inactive: 4.56%"}
{"smiles": "CCOC(=O)c1sc2nc(NC(=O)COc3ccccc3)sc2c1C", "activity change, negative = inhibition": "inactive: 13.8%"}
{"smiles": "COc1cccc(O)c1CN1CCC(C(=O)Nc2ccc(-c3cccc(C)c3)cc2)CC1", "Potency": "inconclusive: 0.411 µM [inhibitor, full curve, poor fit]"}
{"smiles": "CCN(CC)C(=O)C1CCN(S(=O)(=O)c2c(C)noc2/C=C/c2cccc(C)c2)CC1", "Potency": "inconclusive: 8.2 µM [inhibitor, partial curve]"}
{"smiles": "CCOc1ccccc1NC(=O)C(OC(=O)c1ccc(O)cc1)c1ccccc1", "note": "(stereo unspecified)", "Potency": "inconclusive: 29.1 µM [inhibitor, single point]"}
{"smiles": "CCCSC(=S)NC1CCS(=O)(=O)C1", "note": "(stereo unspecified)", "Potency": "active: 23.1 µM"}
{"smiles": "CCCN1CCN(CCCNC(=O)c2ccccc2NC(=O)C2=C(C)OCCS2)CC1", "Potency": "inconclusive: 14.6 µM [activator, partial curve]"}
{"smiles": "O=C1COc2ccc(S(=O)(=O)CCC(=O)N3CCN(c4ccccc4)CC3)cc2N1", "activity change, negative = inhibition": "inactive: 7.36%"}
{"smiles": "CCN(CC(=O)Nc1ccc2c(c1)OCCO2)C(=O)/C=C/c1ccccc1", "activity change, negative = inhibition": "inactive: 18.9%"}
{"smiles": "COC(=O)c1cc(Br)ccc1N(Cc1cc(OC)cc(OC)c1)S(C)(=O)=O", "activity change, negative = inhibition": "inactive: -10.2%"}
{"smiles": "CCOC(=O)c1sc(N(Cc2ccccc2)C(=O)COC(=O)c2cnccn2)nc1C", "activity change, negative = inhibition": "inactive: 3.76%"}
{"smiles": "COc1ccc(NC(=O)Nc2cccc(F)c2)c(OC)c1", "Potency": "inconclusive: 18.3 µM [activator, single point]"}
{"smiles": "CCc1ccc(NC(=O)C(=O)N/N=C(\\C)CC(=O)NCCOC)cc1", "Potency": "inconclusive: 18.3 µM [activator, single point]"}
{"smiles": "COCCCNc1nc2c(-c3cccc(C)c3)nnn2c2ccc(Cl)cc12", "Potency": "inconclusive: 29.1 µM [activator, single point]"}
{"smiles": "O=C(c1cc(-c2cccc(O)c2)on1)N1CCCC1", "Potency": "inconclusive: 6.51 µM [activator, full curve]"}
{"smiles": "CCOC(=O)C1CCN(C(=S)Nc2ccc(CC)cc2)CC1", "Potency": "inconclusive: 3.26 µM [activator, partial curve, poor fit]"}
{"smiles": "O=C(CN1c2cccc3cccc(c23)S1(=O)=O)Nc1ccc(S(=O)(=O)N2CCOCC2)cc1", "Potency": "inconclusive: 18.4 µM [inhibitor, single point]"}
{"smiles": "CCOC(=O)C1(CCOc2ccccc2)CCN(Cc2ccc(C#CCCO)cc2)CC1", "Potency": "inconclusive: 0.184 µM [inhibitor, single point]"}
{"smiles": "Cc1ccc(-n2nnnc2SCC(=O)N2CC(=O)Nc3ccccc32)cc1", "activity change, negative = inhibition": "inactive: 1.31%"}
{"smiles": "O=C(CN1CCOCC1)Nc1ncc(Cc2cccc3ccccc23)s1", "activity change, negative = inhibition": "inactive: 1.04%"}
